Source: publication PMC3877277
No constants are given. Whether binding was seen depends on the method and setting. In cells and extracts the contact can be indirect. Some results given as binding are weak or reduced against the parent protein; the word gives no strength.

Legend:
[1] = target: DRD2-GFP (human dopamine D2 receptor long isoform) (human) (UniProt P14416); assay: co-IP; anti-GFP immunoprecipitation from transfected HEK 293 cell lysates in ELB lysis buffer, 3 h at 4 C, protein-A agarose; Western blot
[2] = target: GST-D2i3 (third intracellular loop of DRD2, amino acid residues 212-373) (human) (UniProt P14416); assay: pull-down; 10 ug purified GST-D2i3 incubated with rat brain lysate 1.5 h at 4 C; GSH-Sepharose 4B beads 1 h; rinsed 4 times with lysis buffer; Western blot with anti-Cdk5 and anti-p35; only the target purified

Row | Substance | binding [1] | binding [2]
1 | HA-Cdk5/p35 complex (human, expressed in HEK 293 cells) (from UniProt Q00535 1-292; Q15078 1-307) | binds | 
2 | Cdk5/p35 complex (endogenous, rat brain) (from UniProt Q03114 1-292; P61810 1-307) |  | binds
